The subject of the assay is Salmonella enterica serovar Typhimurium SL1344. Put plainly: bacterial growth OD600 after 18 h with compound and polymyxin B; higher = more bacterial growth (less inhibition). Particulars: 50 µM, Mueller-Hinton broth.

This is one part of the list. Values are raw readings; no control value is given beside them.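 Primary screen: polymyxin B was added at a level permeabilizing Salmonella outer membranes while sparing inner membranes. DMSO wells, both with and without polymyxin B, established maximum growth. Plate-to-plate variation meant each plate was ranked on its own, and the lowest-OD600 compounds were selected as hits.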

Take `COCCN1C(=O)CC(CC(=O)N2CCCC(c3ccccc3)C2)(c2ccccc2F)C1=O` (configuration not stated): where the note is “polymyxin B 0.75 µg/mL”, the “bacterial growth OD600” value was determined as 0.013.

Take `CC(C(=O)N1CCC(CCC(=O)Nc2ccc(F)c(Cl)c2)CC1)N1CCCC1=O` (configuration not stated): the “bacterial growth OD600” value (polymyxin B 1 µg/mL) stood at 1.05.

For the compound `CN(C)S(=O)(=O)N1CCC(n2nccc2NC(=O)Cc2ccccc2)CC1`, the “bacterial growth OD600” value (polymyxin B 1 µg/mL) came out at 0.898.

In the case of `CC(C)CN(C)c1ccc(C(=O)NCCC2CCCCN2C)cn1` (configuration not stated), the “bacterial growth OD600” value (polymyxin B 0.75 µg/mL) is 0.807.

Consider `COC(=O)c1ccccc1-c1cc(C)cc2c1OC(CNC(=O)Cn1cncn1)C2` (configuration not stated), for which the “bacterial growth OD600” value (polymyxin B 0.75 µg/mL) is 0.833.

Consider `CC(C)S(=O)(=O)c1ncc(CN2C[C@@H]3CCC[C@H]2C3)n1CCc1ccccc1`, for which the “bacterial growth OD600” value (polymyxin B 1 µg/mL) is 1.19.

In the case of `Cc1ccc(CN2CCC(CN(C)Cc3c(F)ccc(F)c3F)CC2)o1`, the “bacterial growth OD600” value (polymyxin B 1 µg/mL) worked out at 1.23.

Take `CC(C)(CNc1nc2nonc2nc1NC1CCCC1)N1CCOCC1`: the “bacterial growth OD600” value (polymyxin B 1 µg/mL) amounted to 0.811.

Turning to `O=C(c1ccsc1)N1CCCC(N2CCN(Cc3ccc4c(c3)OCO4)CC2)C1` (configuration not stated), the “bacterial growth OD600” value (polymyxin B 1 µg/mL) was 0.928.

As for `COc1ccc(-c2n[nH]cc2CN2CCCC(c3nc4ccccc4o3)C2)c(OC)c1` (configuration not stated), the “bacterial growth OD600” value (polymyxin B 1 µg/mL) came out at 0.779.

Consider `CC(Nc1nc(CN2CCN(C(=O)c3ccco3)CC2)nc2ccccc12)c1ccc(F)cc1` (configuration not stated), for which the “bacterial growth OD600” value (polymyxin B 0.75 µg/mL) is 0.819.

Turning to `Fc1cccc(-c2cnnc(N3CCC(OCc4ccccc4)CC3)n2)c1`, the “bacterial growth OD600” value (polymyxin B 0.75 µg/mL) was 0.051.

Turning to `Cn1c(-c2ccncc2)nc2cc(C(=O)N3CCC(c4ccccc4)CC3)cc(NC(=O)C3CCC3)c21`, the “bacterial growth OD600” value (polymyxin B 0.75 µg/mL) is 0.843.

For `COC(=O)C1CCCCN1C(=O)c1c(OC)cc(=O)n2c1CCN(Cc1ccc3c(c1)CCO3)CC2` (configuration not stated), the “bacterial growth OD600” value (polymyxin B 0.75 µg/mL) stood at 0.802.

With `COc1ccc(F)c(CC2(CCC(=O)N(C)Cc3cccc(-n4nc(C)cc4C)c3)CCC(=O)N2)c1` (configuration not stated), under “polymyxin B 0.75 µg/mL”, the “bacterial growth OD600” value was 0.703.

Regarding `COC(=O)c1cc(CNC(=O)c2ccco2)cc(NS(=O)(=O)c2cccc(C(F)(F)F)c2)c1`, the “bacterial growth OD600” value (polymyxin B 0.75 µg/mL) is 0.625.

As to `CCn1cc(CN2C[C@H]3OC(=O)N(Cc4ccccc4OC)[C@H]3C2)cn1`, the “bacterial growth OD600” value (polymyxin B 0.75 µg/mL) was found to be 0.789.

Regarding `C=CCOc1cccc(C(=O)NC2CCCc3nc(N(C)C)ncc32)c1` (configuration not stated), the “bacterial growth OD600” value (polymyxin B 0.75 µg/mL) turned out to be 0.731.

Regarding `CC(C(=O)NCc1cccnc1Oc1ccccc1)n1cccn1` (configuration not stated), the “bacterial growth OD600” value (polymyxin B 1 µg/mL) stood at 0.988.

With `O=C(NC1CCCC1)c1ccc(N2CCC(NCCc3cccc(F)c3)CC2)cc1`, the “bacterial growth OD600” value (polymyxin B 0.75 µg/mL) was 0.021.

With `COc1ccc(CN2CCC(n3nccc3NC(=O)CC(C)C)CC2)c(F)c1`, the “bacterial growth OD600” value (polymyxin B 0.75 µg/mL) was found to be 0.934.

For the compound `COc1ccc(CCN2CC(NC(=O)Cc3ccccc3C)CC2=O)cc1` (configuration not stated), the “bacterial growth OD600” value (polymyxin B 1 µg/mL) came out at 0.898.

On to `COc1ccc(Cl)cc1NC(=O)CCC1CCCN(C(=O)Cn2nc(C)cc2C)C1` (configuration not stated), for which the “bacterial growth OD600” value (polymyxin B 1 µg/mL) turned out to be 0.779.

Take `Cc1oc(-c2ccc(NC(=O)Cc3ccccc3)cc2)nc1CNC(=O)CCC(C)C`: for the setting “polymyxin B 0.75 µg/mL”, the “bacterial growth OD600” value came to 0.791.

As to `Cc1cc(C(=O)NC(C)c2cnc(-c3ccncc3)nc2C)n[nH]1` (configuration not stated), the “bacterial growth OD600” value (polymyxin B 1 µg/mL) was 0.974.

Consider `Oc1ccc(CN2CC[C@@H](N3CCN(c4ccccn4)CC3)[C@H](O)C2)cc1Cl`, for which the “bacterial growth OD600” value (polymyxin B 1 µg/mL) stood at 0.908.

Consider `COC(=O)CCC(=O)NC1CC(=O)N(Cc2cccc3ccccc23)C1` (configuration not stated), for which, for the setting “polymyxin B 1 µg/mL”, the “bacterial growth OD600” value worked out at 0.949.

Consider `COc1ccc(S(=O)(=O)N2CCC(CO)(Cc3ccccc3C(F)(F)F)CC2)cc1`, for which, where the note is “polymyxin B 1 µg/mL”, the “bacterial growth OD600” value was found to be 0.811.

Regarding `Cc1nonc1N1CCN(Cc2nc(-c3cccc(C(F)(F)F)c3)oc2C)CC1`, where the note is “polymyxin B 1 µg/mL”, the “bacterial growth OD600” value was 1.04.

As to `COc1ccccc1CN1C(=O)O[C@@H]2CN(C(=O)NCc3ccco3)C[C@@H]21`, for the setting “polymyxin B 0.75 µg/mL”, the “bacterial growth OD600” value was determined as 0.803.

Regarding `Cn1ccnc1CN1CCCC(CCc2ccccc2F)C1` (configuration not stated), the “bacterial growth OD600” value (polymyxin B 0.75 µg/mL) stood at 0.989.

Consider `COc1ccc(N2C(=O)CN(C(=O)c3ccccc3N(C)C)CC2(C)C)cc1`, for which the “bacterial growth OD600” value (polymyxin B 0.75 µg/mL) turned out to be 0.855.

The values above are taken from the supplement of paper PMC12889115.
